Results are given in words; binding and its absence hold for the method and conditions named. Some results given as binding are weak or reduced against the parent protein; the word gives no strength. Tags and fused reporters may be left off the sequences shown.
T1: purified recombinant mouse egg-specific TolA protein (MET), His-tagged fusion expressed in E. coli (mouse) (UniProt Q9CWU5)
T1 sequence: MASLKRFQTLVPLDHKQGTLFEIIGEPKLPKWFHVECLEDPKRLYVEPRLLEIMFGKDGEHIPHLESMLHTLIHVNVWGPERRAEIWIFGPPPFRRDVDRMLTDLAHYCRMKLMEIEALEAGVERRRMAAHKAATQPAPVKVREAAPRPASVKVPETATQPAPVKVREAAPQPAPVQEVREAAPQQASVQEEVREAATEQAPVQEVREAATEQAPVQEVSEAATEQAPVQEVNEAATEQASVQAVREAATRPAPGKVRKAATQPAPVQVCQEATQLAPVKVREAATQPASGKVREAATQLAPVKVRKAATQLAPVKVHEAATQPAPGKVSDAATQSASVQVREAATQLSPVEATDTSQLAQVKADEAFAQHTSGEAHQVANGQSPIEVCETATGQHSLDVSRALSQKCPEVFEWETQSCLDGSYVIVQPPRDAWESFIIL


Tests used:
[1] = target: N-terminal SAS1R protein (121 residues) fused to the GAL4 DNA-binding domain (pGBKT7), yeast two-hybrid (mouse); experiment: yeast two-hybrid, high stringency plate
[2] = target: full-length mouse SAS1R (414 residues, without signal sequence) fused to the GAL4 DNA-binding domain (pGBKT7), yeast two-hybrid (mouse); experiment: yeast two-hybrid, high stringency plate
[3] = target: C-terminal 210 residue SAS1R protein fused to the GAL4 DNA-binding domain (pGBKT7), yeast two-hybrid (mouse); experiment: yeast two-hybrid, high stringency plate
[4] = target: N-terminal SAS1R protein (121 residues) fused to the GAL4 DNA-binding domain (pGBKT7), yeast two-hybrid (mouse); experiment: yeast two-hybrid
[5] = target: C-terminal 210 residue SAS1R protein fused to the GAL4 DNA-binding domain (pGBKT7), yeast two-hybrid (mouse); experiment: yeast two-hybrid
[6] = target: N-terminal SAS1R protein (121 residues) fused to the GAL4 DNA-binding domain (pGBKT7), yeast two-hybrid (mouse); experiment: yeast two-hybrid, plates examined after three days
[7] = target: C-terminal 210 residue SAS1R protein fused to the GAL4 DNA-binding domain (pGBKT7), yeast two-hybrid (mouse); experiment: yeast two-hybrid, plates examined after three days
[8] = target: N-terminal SAS1R protein (121 residues) fused to the GAL4 DNA-binding domain (pGBKT7), yeast two-hybrid (mouse); experiment: yeast two-hybrid, high stringency plates
[9] = target: full-length mouse SAS1R (414 residues, without signal sequence) fused to the GAL4 DNA-binding domain (pGBKT7), yeast two-hybrid (mouse); experiment: yeast two-hybrid, high stringency plates
[10] = target: C-terminal 210 residue SAS1R protein fused to the GAL4 DNA-binding domain (pGBKT7), yeast two-hybrid (mouse); experiment: yeast two-hybrid, high stringency plates
[11] = target: T1, purified recombinant mouse egg-specific TolA protein (MET), His-tagged fusion expressed in E. coli (mouse); experiment: far-western: 7 µg recombinant MET blotted, overlaid with recombinant SLLP1 2 µg/ml

binding [1] | binding [2] | binding [3] | binding [4] | binding [5] | binding [6] | binding [7] | binding [8] | binding [9] | binding [10] | binding [11] | Binder
binds | binds | binds | binds | binds | binds | binds | binds | binds | binds | – | mature mSLLP1 protein (C-terminal 128 residues) fused to the GAL4 activation domain (pGADT7), yeast two-hybrid (protein, not shown: large carriers) KVFSRCELAKEMHDFGLDGYRGYNLADWVCLAYYTSGFNTNAVDHEADGSTNNGIFQISSRRWCRTLASNGPNLCRIYCTDLLNNDLKDSIVCAMKIVQEPLGLGYWEAWRHHCQGRDLSDWVDGCDF
– | – | – | – | – | – | – | – | – | – | binds | purified soluble recombinant mouse SLLP1 (mature form, residues 94-221), His-tagged, expressed in E. coli (ligand, not shown: small tags and cut ends) KVFSRCELAKEMHDFGLDGYRGYNLADWVCLAYYTSGFNTNAVDHEADGSTNNGIFQISSRRWCRTLASNGPNLCRIYCTDLLNNDLKDSIVCAMKIVQEPLGLGYWEAWRHHCQGRDLSDWVDGCDF

— patent US20100183617A1
